The text below walks through data of PubChem BioAssay AID248 (DTP/NCI, 2004).

This experiment deals with L1210 leukemia ip in BDF1 mice, survival T/C. Nature of the experiment: NCI In Vivo Anticancer Drug Screen. Data for tumor model L1210 Leukemia (intraperitoneal) in B6D2F1 (BDF1) mice. Conditions: T/C endpoint: mean survival time, higher T/C = longer survival.
[1] abbreviates: dose: 200.0 mg/kg/injection, schedule: Q01DX009 (ip), vehicle: Klucel (hydroxypropylcellulose) (HPC).
Where [2] appears, read: dose: 400.0 mg/kg/injection, schedule: Q04DX003 (ip), vehicle: Klucel (hydroxypropylcellulose) (HPC).
Where [3] appears, read: dose: 400.0 mg/kg/injection, schedule: Q04DX002 (ip), vehicle: Klucel (hydroxypropylcellulose) (HPC).
The mark [4] stands for this setting: dose: 400.0 mg/kg/injection, schedule: Q04DX003 (ip), vehicle: saline.
Where [5] appears, read: dose: 100.0 mg/kg/injection, schedule: Q04DX003 (ip), vehicle: saline.
Setting [6] is: dose: 200.0 mg/kg/injection, schedule: Q04DX003 (ip), vehicle: saline.
Setting [7] is: dose: 400.0 mg/kg/injection, schedule: Q01DX001 (ip), vehicle: saline.
The mark [8] stands for this setting: dose: 200.0 mg/kg/injection, schedule: Q01DX001 (ip), vehicle: saline.
Setting [9] is: dose: 50.0 mg/kg/injection, schedule: Q01DX009 (ip), vehicle: Klucel (hydroxypropylcellulose) (HPC).
The mark [10] stands for this setting: dose: 200.0 mg/kg/injection, schedule: Q04DX003 (ip), vehicle: Klucel (hydroxypropylcellulose) (HPC).

The list is a part of this screen's results and no random one: it is rich in T/C values a quarter to a half above the control, in often repeated tests (any T/C) and in doses without a T/C. Other doses and runs of a compound stand elsewhere. T/C is the treated group as % of the vehicle group. Some entries give survivors of the animals treated and no T/C: the source holds a T/C of zero for them, seemingly a mark for toxic or unscored doses. Some doses without a T/C left all or most animals alive at the check, yet need not have been tolerated: the source hardly ever lists a survival T/C far under the control, and the zero likely stands for such cases as well. Survivors were counted at the toxicity check, usually on the fifth day, unless a day is given; later deaths do not show. Schedules are NCI's codes, taken here to give the interval after Q, in days (D) or hours (H), and the number of doses after X. Some entries were tested several times; the values are given in rising order. Some schedules carry Z or #; the key to these is not given. For survival time, this PubChem deposit counts one and a half times the control or more as active, and values a quarter to a half above the control carry no call in these data; other NCI protocols may use other cut-offs. Some T/C values are followed by the survivors on the day toxicity was checked, most often the fifth; without a count, all were alive then.

For `C/C=C(\C)C#N`, the survivor count (dose: 50.0 mg/kg/injection, schedule: Q01DX Z (ip), vehicle: saline) was 0 of 6.
Consider `Cc1ccc(S(=O)(=O)Nc2ncc([N+](=O)[O-])s2)cc1`, for which the survivor count runs as follows: (dose: 100.0 mg/kg/injection, schedule: Q01DX009 (ip), vehicle: saline with Tween-80) 6 of 6; (dose: 200.0 mg/kg/injection, schedule: Q01DX009 (ip), vehicle: saline with Tween-80) 6 of 6.
As to `O=C(O)C(=O)NCc1cnccn1`, the survivor count is given as 3 of 6 (dose: 100.0 mg/kg/injection, schedule: Q01DX009 (ip), vehicle: water); 5 of 6 (dose: 200.0 mg/kg/injection, schedule: Q04DX003 (ip), vehicle: water); 0 of 6 (dose: 400.0 mg/kg/injection, schedule: Q04DX003 (ip), vehicle: water).
In the case of `CCCCCCCCC(O)CC` (stereo unspecified), under setting [1], the survivor count is 4 of 6.
Consider `CCC(C)C(C#N)(CCN(CC)CC)c1ccccc1` (stereo unspecified), for which the survivor count by setting is: under setting [1], 1 of 6; under setting [2], 0 of 6.
On to `CC(=NC(c1ccccc1)c1ccccc1)N(C)C`, for which the survivor count runs as follows: (dose: 200.0 mg/kg/injection, schedule: Q04DX002 (ip), vehicle: saline with Tween-80) 0 of 3; (dose: 400.0 mg/kg/injection, schedule: Q04DX002 (ip), vehicle: saline with Tween-80) 0 of 3.
As to `O=C(CNC1=NCCN1)Nc1ccc(NC(=O)c2ccc(C(=O)Nc3ccc(NC(=O)CNC4=NCCN4)cc3)cc2)cc1`, the T/C (dose: 20.0 mg/kg/injection, schedule: Q01DX Z (ip), vehicle: water) is 136 % of control.
`OCCOc1cc(Cl)c(Cl)cc1Cl`: the survivor count is 1 of 3 and 5 of 6 (dose: 200.0 mg/kg/injection, schedule: Q01DX009 (ip), vehicle: carboxymethylcellulose (CMC)); 5 of 6 (dose: 400.0 mg/kg/injection, schedule: Q01DX009 (ip), vehicle: saline with Tween-80); 0 of 3 and 3 of 6 (dose: 400.0 mg/kg/injection, schedule: Q04DX002 (ip), vehicle: carboxymethylcellulose (CMC)).
With `O=C(Nc1cccc(O)c1)Nc1cc([N+](=O)[O-])ccc1F`, the T/C (dose: 100.0 mg/kg/injection, schedule: Q04DX002 (ip), vehicle: Klucel (hydroxypropylcellulose) (HPC)) was 96, 98, 103, 125 % of control; the T/C (dose: 200.0 mg/kg/injection, schedule: Q04DX002 (ip), vehicle: Klucel (hydroxypropylcellulose) (HPC)) was 95, 96, 97, 102 % of control; the T/C under setting [3] is reported as 93, 100, 105, 118 % of control.
As to `C/C(=N/N(C)C)c1cccc(C(F)(F)F)c1`, under setting [4], the survivor count was 0 of 6.
Turning to `S=C([S-])N1CCN(c2ccccc2)CC1.S=C([S-])N1CCN(c2ccccc2)CC1.[Zn]`, the survivor count was 6 of 6 under setting [5] and 1 of 6 under setting [4].
Turning to `CC(=O)Nc1onc(C)c1[N+](=O)[O-]`, the survivor count (dose: 100.0 mg/kg/injection, schedule: Q01DX009 (ip), vehicle: saline) was 6 of 6.
Regarding `COc1ccc(CC(=O)OOC(C)(C)C)cc1`, the survivor count (dose: 400.0 mg/kg/injection, schedule: Q04DX003 (ip), vehicle: saline with Tween-80) is listed as 3 of 3.
In the case of `CS(=O)(=O)OCCC(=O)NCCCCNC(=O)CCOS(C)(=O)=O`, the T/C runs as follows: under setting [6], 127 % of control; (dose: 264.0 mg/kg/injection, schedule: Q01DX009 (ip), vehicle: saline with Tween-80) 137 % of control; under setting [7], 129 and 135 % of control; under setting [4], 132 % of control.
Take `Cc1ccc(S(=O)(=O)NCCCCCC(=O)OCc2ccccc2)cc1`: the survivor count (dose: 400.0 mg/kg/injection, schedule: Q01DX009 (ip), vehicle: saline) is recorded as 4 of 6.
Regarding `NC(=O)CC[n+]1ccccc1`, the survivor count under setting [5] is reported as 5 of 6 and the survivor count under setting [6] was 0 of 6.
With `C=CCSc1cccc(Cl)c1`, the survivor count under setting [7] is reported as 3 of 6.
For the compound `N#CCCSC(=N)N`, the survivor count reads like this: under setting [8], 2 of 6; under setting [7], 0 of 6.
In the case of `CCCCCN(CCCCC)CCCNc1c2c(nc3ccc(OC)cc13)CCCC2`, the survivor count by setting is: (dose: 30.0 mg/kg/injection, schedule: Q01DX001 (ip), vehicle: saline) 3 of 6; (dose: 40.0 mg/kg/injection, schedule: Q01DX001 (ip), vehicle: saline) 0 of 4; (dose: 50.0 mg/kg/injection, schedule: Q01DX001 (ip), vehicle: saline) 0 of 4 and 1 of 4; (dose: 80.0 mg/kg/injection, schedule: Q01DX001 (ip), vehicle: saline) 0 of 4; (dose: 100.0 mg/kg/injection, schedule: Q01DX001 (ip), vehicle: saline) 0 of 4; under setting [8], 0 of 4. In addition, under setting [7], the survivor count was 0 of 4.
Take `CCCCCCCCCCCCCCCCCN`: the survivor count by setting is: under setting [9], 5 of 6; (dose: 100.0 mg/kg/injection, schedule: Q04DX003 (ip), vehicle: Klucel (hydroxypropylcellulose) (HPC)) 6 of 6; under setting [10], 4 of 6; under setting [2], 0 of 6.
Regarding `CC1(C)N=C(N)N=C(N)N1c1ccc(CCCCc2ccc(S(=O)(=O)F)cc2Cl)c(Cl)c1`, the T/C reads like this: (dose: 10.89 mg/kg/injection, schedule: Q04DX003 (ip), vehicle: saline) 130 % of control; (dose: 12.5 mg/kg/injection, schedule: Q01DX009 (ip), vehicle: saline) 131 % of control; (dose: 15.0 mg/kg/injection, schedule: Q01DX009 (ip), vehicle: saline with Tween-80) 132 % of control; (dose: 25.0 mg/kg/injection, schedule: Q01DX009 (ip), vehicle: saline) 125 % of control; (dose: 36.0 mg/kg/injection, schedule: Q01DX009 (ip), vehicle: saline with Tween-80) 125 % of control; (dose: 37.5 mg/kg/injection, schedule: Q01DX009 (ip), vehicle: saline with Tween-80) 135 % of control. Moreover, the T/C was 129 % of control (dose: 37.5 mg/kg/injection, schedule: Q04DX003 (ip), vehicle: saline with Tween-80); 132 and 135 % of control under setting [9]; 127 % of control (dose: 50.0 mg/kg/injection, schedule: Q01DX009 (ip), vehicle: saline); 133 % of control (dose: 75.0 mg/kg/injection, schedule: Q04DX003 (ip), vehicle: saline with Tween-80); 135 % of control (dose: 75.0 mg/kg/injection, schedule: Q04DX003 (ip), vehicle: saline); 128 and 132 % of control (dose: 100.0 mg/kg/injection, schedule: Q01DX009 (ip), vehicle: Klucel (hydroxypropylcellulose) (HPC)). For the same compound, the T/C was 125 % of control (dose: 133.0 mg/kg/injection, schedule: Q04DX003 (ip), vehicle: Klucel (hydroxypropylcellulose) (HPC)); 147 % of control (dose: 150.0 mg/kg/injection, schedule: Q04DX003 (ip), vehicle: saline); 131 and 132 % of control under setting [10]; 125 % of control [5 of 6 alive] (dose: 300.0 mg/kg/injection, schedule: Q04DX003 (ip), vehicle: saline). The survivor count was 5 of 6 (dose: 150.0 mg/kg/injection, schedule: Q01DX009 (ip), vehicle: saline with Tween-80); 5 of 6 (dose: 200.0 mg/kg/injection, schedule: Q01DX009 (ip), vehicle: saline); 0 of 6 (dose: 300.0 mg/kg/injection, schedule: Q01DX009 (ip), vehicle: saline with Tween-80); 6 of 6 (dose: 300.0 mg/kg/injection, schedule: Q04DX003 (ip), vehicle: saline with Tween-80).
As to `C/C(C(=O)O)=C(/Cl)c1c(C)cc(C)c(Br)c1C`, the survivor count (dose: 400.0 mg/kg/injection, schedule: Q01DX009 (ip), vehicle: gum acacia) was 0 of 6.
`O=P(O)(CP(=O)(c1ccccc1)c1ccccc1)c1ccccc1`: under setting [3], the survivor count is 0 of 3.
